Measurements: patent US7452687B2 (Asahi Kasei Pharma Corporation, priority 2002, dated 2008)
For at least one compound, name, drawing or mass did not settle the structure.

Test system: myo-inositol dehydrogenase derived from the strain F.sp.671
Test: Relative activity assay (initial velocity with each coenzyme or substrate)
Format: biochemical, Flavobaterium sp. 671
Description: The relative activities were determined with the coenzyme changed according to the following method. Relative Activity Assay <Composition of Reaction Solution> • Buffer: 100 mM glycine buffer (pH 10.0) • Substrate: 20 mM myo-inositol (Sigma, Co., Ltd.) • Coenzyme: 2 mM (NAD, thio-NAD, NADP, thio NADP; Oriental Yeast Co., Ltd.) One ml of the above reaction solution is added to a quartz cell. Then, the quartz cell is placed in a spectrophotometer adjusted at a temperature of 37° C. The cell is incubated for 5 minutes or more and then 20 μl of an enzyme solution of about 1.0 U/ml is added thereto and mixed. The initial velocity is obtained from an absorbance change per minute at a wavelength peculiar to each reduced coenzyme. The initial velocity obtained with each coenzyme is compared with the initial velocity (100%) obtained using NAD as a coenzyme to provide the relative activity. According to the relative activity assay described above, the measurement was performed using the same concentration of D-chiro-inositol, D-mannose, D-fructose, D-galactose, mannitol, epi-inositol, or scyllo-inositol in place of the substrate in the reaction solution. […] The substrates used include D-mannose, D-fructose, D-galactose, mannitol, D-chiro-inositol (as above: Wako Pure Chemical Industries, Ltd.), myo-inositol, epi-inositol, and scyllo-inositol (as above: Sigma, Co., Ltd.). […]

Question: `NC(=O)c1ccc[n+]([C@@H]2O[C@H](COP(=O)([O-])OP(=O)(O)OC[C@H]3O[C@@H](n4cnc5c(N)ncnc54)[C@H](O)[C@@H]3O)[C@@H](O)[C@H]2O)c1` [NAD, nicotinamide adenine dinucleotide] was tested. Which Km (coenzyme concentration changed) did it give?
Answer: 40 ± 10 µM

Question: And the “Relative activity ratio for each coenzyme used” value (substrate 20 mM myo-inositol, coenzyme 2 mM, 100 mM glycine buffer pH 10.0, 37° C., NAD as 100%)?
Answer: 100%
